Experimental data taken from article PMC7737607.
Results are given in words; binding and its absence hold for the method and conditions named. Binding seen in cells or lysates may run through a third protein. Some binding calls cover weakened binding; strength is not graded here.

By UniProt entry, the sequences of proteins in these tests, tags left out. Residues count along the entry.
UniProt Q13586, residues 23-685: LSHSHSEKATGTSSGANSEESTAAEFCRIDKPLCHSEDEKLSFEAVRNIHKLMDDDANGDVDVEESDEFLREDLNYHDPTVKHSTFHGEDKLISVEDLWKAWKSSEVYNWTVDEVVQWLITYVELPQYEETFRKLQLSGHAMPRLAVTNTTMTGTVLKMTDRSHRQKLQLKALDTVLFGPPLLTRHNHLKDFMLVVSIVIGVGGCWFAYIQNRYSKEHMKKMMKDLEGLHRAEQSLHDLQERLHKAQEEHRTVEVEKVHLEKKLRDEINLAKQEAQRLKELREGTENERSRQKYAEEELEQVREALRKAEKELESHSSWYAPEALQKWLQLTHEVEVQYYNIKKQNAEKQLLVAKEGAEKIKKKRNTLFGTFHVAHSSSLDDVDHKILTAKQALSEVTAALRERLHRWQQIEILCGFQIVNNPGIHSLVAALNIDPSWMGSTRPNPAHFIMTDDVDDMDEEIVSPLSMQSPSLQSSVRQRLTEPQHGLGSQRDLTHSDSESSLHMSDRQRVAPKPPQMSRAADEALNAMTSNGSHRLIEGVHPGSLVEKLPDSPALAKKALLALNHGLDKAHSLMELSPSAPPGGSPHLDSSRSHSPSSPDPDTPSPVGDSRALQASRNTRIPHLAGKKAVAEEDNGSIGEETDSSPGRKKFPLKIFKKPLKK
UniProt Q15691: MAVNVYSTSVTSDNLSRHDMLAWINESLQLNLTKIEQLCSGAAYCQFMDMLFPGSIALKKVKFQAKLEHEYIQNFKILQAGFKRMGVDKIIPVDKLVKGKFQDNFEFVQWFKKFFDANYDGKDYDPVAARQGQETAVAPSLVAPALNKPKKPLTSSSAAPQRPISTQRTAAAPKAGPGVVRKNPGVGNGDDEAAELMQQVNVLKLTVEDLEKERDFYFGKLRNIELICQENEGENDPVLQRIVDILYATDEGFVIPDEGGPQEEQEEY

What was measured:
[1] = target: stromal interaction molecule 1 (STIM1) (human (endogenous in primary umbilical vein ECs)) (UniProt Q13586); test: co-IP; endogenous STIM1 immunoprecipitated (rabbit antibody) from lysates of wild-type ECs; 25 mM Tris-HCl pH 7.2, 150 mM NaCl, 1% NP-40, 4°C; Western blot
[2] = target: T1, kinesin-14 KIFC1 (human (endogenous in primary umbilical vein ECs)) (UniProt Q9BW19); test: co-IP; endogenous KIFC1 immunoprecipitated (mouse antibody) from lysates of wild-type ECs; 25 mM Tris-HCl pH 7.2, 150 mM NaCl, 1% NP-40, 4°C; Western blot
T1 sequence: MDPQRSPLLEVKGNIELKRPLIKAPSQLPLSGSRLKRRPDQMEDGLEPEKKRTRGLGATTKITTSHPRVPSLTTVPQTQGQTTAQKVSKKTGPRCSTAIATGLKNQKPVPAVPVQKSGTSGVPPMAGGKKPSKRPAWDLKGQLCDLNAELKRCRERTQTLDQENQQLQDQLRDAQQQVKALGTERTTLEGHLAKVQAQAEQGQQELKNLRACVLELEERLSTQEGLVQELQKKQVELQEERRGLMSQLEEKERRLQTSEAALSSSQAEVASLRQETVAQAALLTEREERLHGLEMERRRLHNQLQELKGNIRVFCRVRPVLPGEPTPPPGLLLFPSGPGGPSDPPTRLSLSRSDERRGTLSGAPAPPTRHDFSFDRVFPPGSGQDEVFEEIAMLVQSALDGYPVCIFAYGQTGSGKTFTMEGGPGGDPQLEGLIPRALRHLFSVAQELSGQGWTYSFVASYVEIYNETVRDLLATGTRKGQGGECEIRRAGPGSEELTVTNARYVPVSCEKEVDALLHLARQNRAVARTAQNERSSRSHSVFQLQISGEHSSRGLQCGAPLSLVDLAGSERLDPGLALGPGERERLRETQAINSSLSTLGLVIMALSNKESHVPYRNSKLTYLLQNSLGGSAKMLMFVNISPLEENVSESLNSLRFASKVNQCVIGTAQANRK

[3] = target: MT plus end-binding protein 1 (EB1) (human (endogenous in primary umbilical vein ECs)) (UniProt Q15691); test: co-IP; endogenous EB1 immunoprecipitated (mouse anti-EB1) from lysates of shCTL or shSTIM1 ECs; 1 mg lysate, 25 mM Tris-HCl pH 7.2, 150 mM NaCl, 1% NP-40, 4°C; Western blot

| binding [1] | binding [2] | binding [3] | Substance |
| --- | --- | --- | --- |
| binds | binds | binds | p150Glued subunit of dynactin (from UniProt Q14203-1 1-1278) |
| binds |  |  | MT plus end-binding protein 1 (EB1) (from UniProt Q15691 1-268) |
